Data taken from patent US8420051B2, “Muteins of hNGAL and related proteins with affinity for a given target” (Technische Universitaet Meunchen, priority 2008, dated 2013).

System: hNGAL mutein L1, SEQ ID NO: 28 (C26 + R43P/E44V/K46P/D47E/K50L/M51L)
Experiment: SPR (Biacore), immobilized Y-DTPA-RNaseA
Format: binding, human
Method: Real time analysis of hNGAL variants was performed on a BIAcore X system (BIAcore, Uppsala, Sweden) using PBS/t (PBS containing 0.005% (v/v) Tween 20) as running buffer. 5 to 27 μg/ml solutions of the Me•DTPA-RNase conjugate in 10 mM Na-acetate, pH 5.0 were immobilized on a CM5 chip using standard amine coupling chemistry, resulting in a ligand density of 240 to 1800 resonance units (RU). The purified hNGAL variant was applied at a flow rate of 5 or 25 μl/min at concentrations of 0.5 up to 500 nM. The sensorgrams were corrected by subtraction of the corresponding signals measured for the control channel, which had been activated and blocked with ethanolamine. Kinetic data evaluation was performed by global fitting with BIAevaluation software V 3.0 (Karlsson et al. (1991) J. Immunol. Methods 145, 229-240). Alternatively, the plateau values at the end of the association phase (after 200 s) were plotted against the applied protein concentration and fitted as in the ELISA (see above) to determine the equilibrium dissociation constants (KO.
The new hNGAL variant L1 was analyzed by SPR as in Example 8 using a Biacore CM-5 chip with the covalently attached Y-DTPA-RNaseA conjugate and applying the purified recombinant protein.

B1: Y^3+•DTPA-RNase: p-SCN-Bn-CHX-A″-DTPA covalently coupled to bovine ribonuclease A (about 1:1), charged with Y^3+; ligand is the chelate group (conjugate, UniProt P61823 27-150, looked up)
Ribonuclease pancreatic: KETAAAKFERQHMDSSTSAASSSNYCNQMMKSRNLTKDRCKPVNTFVHESLADVQAVCSQKNVACKNGQTNCYQSYSTMSITDCRETGSSKYPNCAYKTTQANKHIIVACEGNPYVPVHFDASV
modifications: CHX-A''-DTPA chelate with Y3+
notes: p-SCN-Bn-CHX-A″-DTPA covalently coupled to bovine ribonuclease A (about 1:1), charged with Y^3+; ligand is the chelate group
improvement of dissociation rate constant compared with C26: 3.4 -fold
reduction of association rate constant compared with C26: 10 -fold
